Where no end group is shown, it is not given here. [ ]: non-standard residue; d: D form. Dopa = N[C@@H](Cc1ccc(O)c(O)c1)C(=O)O; Hyp = O=C(O)[C@@H]1C[C@@H](O)CN1
Experiment: general procedure: Fmoc solid-phase peptide synthesis; Fmoc-Lys(Boc)-Wang resin (GL Biochem); also Fmoc-Dopa(acetonide)-Wang, Fmoc-Thr(tBu)-Wang and Fmoc-Tyr(tBu)-Wang resin; TBTU/DIPEA
Settings: whole synthesis, HPLC, Agilent ZORBAX Eclipse SB-C18, UV at 220 nm (Shimadzu LCMS-8050 / LC-20), scale of the general procedure 9.15 g resin, acetate

Row | Substance | crude HPLC purity | final HPLC purity
1 | AKPSY[Hyp]T[Dopa][Hyp]K | 79.176% | –
2 | AKPSY[Hyp][Hyp]TYK[Dopa] | 79.393% | –
3 | KAK[Hyp]S[Dopa][Hyp][Hyp]T[Dopa] | 75.843% | –
4 | AKPSY[Hyp]T[Dopa][Hyp]K[Dopa] | 74.934% | –
5 | AKPSY[Hyp]TY[Hyp]K[Dopa] | 76.125% | –
6 | AKPS[Dopa][Hyp]T[Dopa][Hyp]K[Dopa] | 78.867% | –
7 | AKPSY[Hyp]TY[Hyp]K | 77.392% | –
8 | [Dopa]AKPSY[Hyp][Hyp]TYK | 77.944% | –
9 | Ala-Lys-Pro-Ser-Tyr-Hyp-Hyp-Thr-Tyr-Lys-Dopamine | 70.392% | –
10 | AKPS[Dopa][Hyp]T[Dopa][Hyp]K | 75.843% | –
11 | KAKPS[Dopa][Hyp][Hyp]T[Dopa] | 77.392% | –
12 | Ala-Lys-Pro-Ser-Tyr-Hyp-Thr-Tyr-Hyp-Lys-Dopamine | 70.476% | –
13 | [Dopa]AKPS[Dopa][Hyp]T[Dopa][Hyp]K | 75.123% | –
14 | [Dopa]AKPSY[Hyp][Hyp]T[Dopa]K | 77.865% | –
15 | KAKPSY[Hyp][Hyp]T[Dopa] | 79.832% | –
16 | [Dopa]KPSY[Hyp]TA[Hyp]K | 78.312% | –
17 | HCA-Ala-Lys-Pro-Ser-Tyr-Hyp-Thr-Tyr-Hyp-Lys | 77.957% | –
18 | Ala-Lys-Pro-Ser-Tyr-Hyp-Hyp-Thr-DOPA-Lys-Dopamine | 69.173% | –
19 | KAK[Hyp]SY[Hyp][Hyp]T[Dopa] | 79.176% | –
20 | [Dopa]KPS[Dopa][Hyp][Hyp]TAK | 74.934% | –
21 | [Dopa]KPS[Dopa][Hyp]TA[Hyp]K | 77.121% | –
22 | [Dopa]AKPSY[Hyp]T[Dopa][Hyp]K | 79.853% | –
23 | AKPSY[Hyp][Hyp]T[Dopa]K[Dopa] | 78.938% | –
24 | [Dopa]AKPSY[Hyp]TY[Hyp]K | – | 98%
25 | [Dopa]KPSY[Hyp][Hyp]TAK | 76.125% | –
26 | [Dopa]AKPS[Dopa][Hyp][Hyp]T[Dopa]K | 76.947% | –
27 | Ala-Lys-Pro-Ser-DOPA-Hyp-Thr-DOPA-Hyp-Lys-Dopamine | 69.532% | –
28 | AKPS[Dopa][Hyp][Hyp]T[Dopa]K[Dopa] | 77.876% | –
29 | Ala-Lys-Pro-Ser-DOPA-Hyp-Hyp-Thr-DOPA-Lys-Dopamine | 70.822% | –
30 | Ala-Lys-Pro-Ser-Tyr-Hyp-Thr-DOPA-Hyp-Lys-Dopamine | 68.948% | –

Same assay, conditions: whole synthesis, UV 220 nm, scale of the general procedure 9.15 g resin, acetate

Row | Substance | crude HPLC purity
31 | [Dopa]AKPSY[Hyp]TY[Hyp]K | 79.363%
